Results reported in PubChem BioAssay AID2417 (National Center for Advancing Translational Sciences (NCATS), 2010).
About 4,300 (3.1%) of roughly 140,000 compounds were called active. This list was built around the results that the source calls inconclusive (neither active nor inactive); the mix of calls is not that of the screen.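 The calls were made as follows: active = readout at or below -70, meaning at least 70% loss of cells showing the perinucleolar compartment, a nuclear body marking cancer cells; inconclusive = readout between -30 and a set limit; inactive = the rest.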

Assay: High Content Assay for Compounds that inhibit the Assembly of the Perinucleolar Compartment;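 also: plate controls were DMSO wells for no effect and camptothecin positive control wells for full effect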
Settings: PC3M PTB-GFP, PNC prevalence imaging, 16 h; at 10 µM; active compounds read low
Procedure, shortened: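 Read-out is percentage of cells bearing a perinucleolar compartment, from automated 20x imaging of fixed, Hoechst-stained PC3M PTB-GFP cells. Cells were seeded 4 h, then exposed 16 h to compound (23 nl of library stock) in duplicate plates.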
With O=C(Nc1ccc(OCc2ccccc2)cc1)c1cccc([N+](=O)[O-])c1 the activity change (PNC), negative = inhibition was inconclusive: -35%. In the case of Cc1cccc(N2CCN(C(=O)c3c(C)nn(Cc4ccccc4Cl)c3C)CC2)c1C, the activity change (PNC), negative = inhibition is reported as inconclusive: -37.4%. For Cc1ccc(NC2CC(=O)N(Cc3ccccc3)C2=O)cc1 (stereo unspecified), the activity change (PNC), negative = inhibition was inactive: -16.5%. In the case of O=C(COC(=O)CCSc1ccc(Cl)cc1)NCc1ccccc1, the activity change (PNC), negative = inhibition is reported as inconclusive: -41.7%. For CNS(=O)(=O)c1cccc2nsnc12, the activity change (PNC), negative = inhibition was inconclusive: -50.4%. With COc1ccccc1NC(=O)CC1C(=O)NCCN1C(=O)Nc1ccc(Cl)c(Cl)c1 (stereo unspecified) the activity change (PNC), negative = inhibition was inconclusive: -38.1%. For COc1ccc(-c2nc(N)nc(C)c2Oc2ccccc2Br)c(O)c1, the activity change (PNC), negative = inhibition was inconclusive: -64.9%. In the case of O=C(CS(=O)(=O)c1ccccc1)Nc1nc(-c2ccccc2)cs1, the activity change (PNC), negative = inhibition is reported as inconclusive: -77.7%. For O=C(Cc1n[nH]c(=O)[nH]c1=O)N/N=C/c1ccccc1, the activity change (PNC), negative = inhibition was inconclusive: -48.6%. For N#CC(C(=O)NCc1ccccc1)c1nc2ccccc2nc1N1CCCC1 (stereo unspecified), the activity change (PNC), negative = inhibition was inconclusive: -59.4%. For Cc1nc(N(C)C)c2sc(=S)n(C)c2n1, the activity change (PNC), negative = inhibition was inconclusive: -47%. With O=S(=O)(Nc1cc(Sc2cccc3cccnc23)c(O)c2ccccc12)c1ccc(F)cc1 the activity change (PNC), negative = inhibition was active: -118%. With CC(=O)Nc1c(C(=O)N2CCCCCC2)cnn1-c1ccccc1 the activity change (PNC), negative = inhibition was inactive: -27.5%. In the case of COc1ccc(Cn2c(=O)[nH]c3cc(C(=O)NCCCN4CCCC4=O)ccc3c2=O)cc1, the activity change (PNC), negative = inhibition is reported as inconclusive: -35.7%. For CCCNC(=O)C1CCN(S(=O)(=O)c2c(C)noc2/C=C\c2ccc(OC)cc2)CC1, the activity change (PNC), negative = inhibition was inconclusive: -63.2%. In the case of Cc1ccc(C)c(NC(=O)Cn2nnc(C(=O)Nc3c(C)cccc3C)c2N)c1, the activity change (PNC), negative = inhibition is reported as inconclusive: -57.8%. For Cc1cccc(C)c1NC(=O)COc1ccc2c(C)c(Cc3ccccc3)c(=O)oc2c1C, the activity change (PNC), negative = inhibition was inconclusive: -30.3%. For CCN(CC)C(=O)CN1C(=O)C2CC=C(Cl)CC2C1=O (stereo unspecified), the activity change (PNC), negative = inhibition was inactive: -2.18%. For O=C(OCC#CCSc1nnc(-c2cccc3ccccc23)o1)c1cccs1, the activity change (PNC), negative = inhibition was inactive: -11.8%. In the case of CCOc1cc(-c2c(C#N)c(N)nc3c2CCCC3)ccc1O, the activity change (PNC), negative = inhibition is reported as active: -114%. With CN(C)c1cccc(C(=O)NC2CCCCCC2)c1 the activity change (PNC), negative = inhibition was inconclusive: -37.6%. With Cc1ccc(C2CC2c2n[nH]c(=S)n2-c2cccc(Cl)c2)cc1 (stereo unspecified) the activity change (PNC), negative = inhibition was inconclusive: -79.8%. With Fc1ccc(C2CC(c3ccco3)=NN2c2ccccc2)cc1 (stereo unspecified) the activity change (PNC), negative = inhibition was inconclusive: -30.6%. With O=c1c2ccccc2c(-c2ccc(O)cc2)nn1-c1cccc(C(F)(F)F)c1 the activity change (PNC), negative = inhibition was active: -85.4%. With Cc1nc2c(cnn2-c2ccccc2Cl)c(=O)n1-c1ccc(N2CCC(C)CC2)cc1 the activity change (PNC), negative = inhibition was inconclusive: -51.8%. For CC(C)Oc1ccc2nnnn2n1, the activity change (PNC), negative = inhibition was inconclusive: -36.1%. In the case of CCCOc1ccc(C(O)C(CN2CCOCC2)c2ccccc2)cc1 (stereo unspecified), the activity change (PNC), negative = inhibition is reported as inconclusive: -35.5%. With O=c1cc(CN2CCN(c3ccccc3)CC2)c2cc(O)c(-c3ccccc3)cc2o1 the activity change (PNC), negative = inhibition was inconclusive: -35.6%. For Cc1nc(N2CCN(Cc3ccccc3)CC2)nc2c1C(=O)CC(C)C2 (stereo unspecified), the activity change (PNC), negative = inhibition was inconclusive: -42.3%. In the case of O=C(COC(=O)CCCOc1ccc(Cl)cc1Cl)Nc1cccc(Cl)c1, the activity change (PNC), negative = inhibition is reported as inconclusive: -67.1%. With Cc1cccc(C(=O)NC(=S)N2CCN(C(=S)NC(=O)c3cccc(C)c3)CC2)c1 the activity change (PNC), negative = inhibition was inactive: 8.68%. For CCOC(=O)c1ccccc1NC(=O)c1ccccc1SC, the activity change (PNC), negative = inhibition was active: -80.3%. For CC1CN(C2CCN(C(=O)c3ccccc3Cl)CC2)CC(C)O1 (stereo unspecified), the activity change (PNC), negative = inhibition was inconclusive: -53.8%. In the case of O=C(OCc1ccc2c(c1)OCO2)c1ccc(S(=O)(=O)N2CCCCC2)cc1, the activity change (PNC), negative = inhibition is reported as inconclusive: -79.5%. In the case of O=C(CC1SC(=O)N(Cc2ccc(Cl)cc2)C1=O)Nc1nccs1 (stereo unspecified), the activity change (PNC), negative = inhibition is reported as inconclusive: -60.3%. For CCCSc1nn2c(=O)c3ccccc3nc2s1, the activity change (PNC), negative = inhibition was inconclusive: -30.3%. In the case of CCCCOc1ccc(/C=C/C(=O)OCC(=O)NC(=O)NCC(C)C)cc1OCC, the activity change (PNC), negative = inhibition is reported as active: -112%. With Cc1nn(-c2ccccc2)c(C)c1NC(=O)COc1ccc(F)cc1Cl the activity change (PNC), negative = inhibition was active: -102%. With CCC(CC)C(=O)Nc1cc([N+](=O)[O-])ccc1Cl the activity change (PNC), negative = inhibition was active: -116%. For O=C1CC(c2nc3ccccc3[nH]2)CN1c1ccccc1 (stereo unspecified), the activity change (PNC), negative = inhibition was inactive: 29.2%. In the case of O=C(CC1SC(=Nc2cccc3ccccc23)N(Cc2ccccn2)C1=O)Nc1ccccc1Br (stereo unspecified), the activity change (PNC), negative = inhibition is reported as inconclusive: -62.8%. With Cc1ccc(-c2nnc(-n3nnc4ccccc43)c3ccccc23)cc1 the activity change (PNC), negative = inhibition was inconclusive: -40.4%. In the case of O=C(CN1CCOCC1)N1CCN(c2nnc(-c3ccccc3)c3ccccc23)CC1, the activity change (PNC), negative = inhibition is reported as inactive: -11.8%. With CCOc1cccc(N2C(=O)CC(n3cnc4ccccc43)C2=O)c1 (stereo unspecified) the activity change (PNC), negative = inhibition was inactive: -19.2%. In the case of c1ccc(COc2ccc(OCCOCCn3cncn3)cc2)cc1, the activity change (PNC), negative = inhibition is reported as inconclusive: -39.3%. For O=C(/C=C(\c1ccccc1)n1cncn1)c1ccccc1, the activity change (PNC), negative = inhibition was inactive: -14.9%. With CCOC(=O)C1=C(c2ccccc2)ON(C)C1c1ccccc1 (stereo unspecified) the activity change (PNC), negative = inhibition was inactive: -26.3%. For CCNC(=S)Nc1ccc(N(c2ccccc2)C(C)C)cc1, the activity change (PNC), negative = inhibition was inconclusive: -47.2%. With COc1cc(NS(C)(=O)=O)c(OC)cc1NC(=O)c1cccc(F)c1 the activity change (PNC), negative = inhibition was inactive: -2.86%. With COc1cc2c(cc1NC(=O)C(C)N1CCN(S(=O)(=O)c3ccccc3[N+](=O)[O-])CC1)oc1ccccc12 (stereo unspecified) the activity change (PNC), negative = inhibition was inconclusive: -34.8%. With COc1cc2c(=O)n(Cc3ccccc3)c(=O)n(CC(=O)NCCc3ccccc3)c2cc1OC the activity change (PNC), negative = inhibition was inconclusive: -37.7%. In the case of CC1CCC2C(=O)N(c3ccccc3OC(=O)c3ccccc3)C(=O)C2C1 (stereo unspecified), the activity change (PNC), negative = inhibition is reported as inconclusive: -33.3%. For CC(=O)c1cc(C(=O)Nc2ccc(C(=O)O)cc2)oc1C, the activity change (PNC), negative = inhibition was inconclusive: -34.9%. In the case of CC1CN(S(=O)(=O)c2cccc(-c3csc(-c4ccccc4)n3)c2)CC(C)O1 (stereo unspecified), the activity change (PNC), negative = inhibition is reported as inactive: 11.4%. With CCOC(=O)c1c(CNCCN(CC)CC)n(C)c2cc(Br)c(OC)cc12 the activity change (PNC), negative = inhibition was inconclusive: -40.3%. In the case of CCNS(=O)(=O)c1ccc(C)c(-n2cnnn2)c1C, the activity change (PNC), negative = inhibition is reported as inconclusive: -42.3%. With COc1ccc(C2CC(=O)Nc3cc(C)c(C)cc32)c(OC)c1OC (stereo unspecified) the activity change (PNC), negative = inhibition was inactive: -26.4%. In the case of O=C(/C=C/c1ccc(-c2ccccc2)o1)c1ccccc1, the activity change (PNC), negative = inhibition is reported as inactive: -8.34%. For O=C(NCc1cccs1)C1CCC(CNS(=O)(=O)c2cccs2)CC1 (stereo unspecified), the activity change (PNC), negative = inhibition was inactive: -15.5%. With Clc1ccc(Nc2nc(C3CC3)cs2)cc1 the activity change (PNC), negative = inhibition was inactive: 0.909%. For Cc1ccc(NC(=O)C(=O)NCc2ccc(/C=C(/C#N)C(=O)NCc3cccnc3)o2)cc1, the activity change (PNC), negative = inhibition was inconclusive: -44.6%. In the case of CCOCC(=O)Nc1ccc(S(=O)(=O)NCCc2ccccc2)cc1, the activity change (PNC), negative = inhibition is reported as inactive: 2.85%. In the case of COc1ccc(NC(=O)CCNC(=O)Cn2ccc3ccccc3c2=O)c(OC)c1, the activity change (PNC), negative = inhibition is reported as inconclusive: -32.2%. For Cc1ccc(NC(=O)COC(=O)c2cc(Cl)cc(Cl)c2)c(Br)c1, the activity change (PNC), negative = inhibition was inactive: -20.8%. With CCN(CC)C(=O)CSc1nc2c(sc(=S)n2CC)c(=O)n1-c1ccccc1 the activity change (PNC), negative = inhibition was inconclusive: -65.2%. For CC(=O)C1C(=O)C=C(c2ccco2)CC1c1ccccc1 (stereo unspecified), the activity change (PNC), negative = inhibition was inactive: 3.64%. With COc1ccc(C2CC(c3ccc(Br)cc3)=NN2C(=O)CSC2=NCCS2)cc1 (stereo unspecified) the activity change (PNC), negative = inhibition was inconclusive: -45.9%. For COc1ccc(OC)c(S(N)(=O)=O)c1, the activity change (PNC), negative = inhibition was inconclusive: -37.3%. For CC(NC(=O)COC(=O)c1ccc2c(c1)S(=O)(=O)N=C1CCCCCN12)C12CC3CC(CC(C3)C1)C2 (stereo unspecified), the activity change (PNC), negative = inhibition was inconclusive: -35.1%. With O=C(Nc1ccccc1)Nc1ccc(Br)c(Cl)c1 the activity change (PNC), negative = inhibition was inconclusive: -44.8%. With CC1=C(C(=O)Nc2ccccc2C)C(c2cccs2)NC(=S)N1 (stereo unspecified) the activity change (PNC), negative = inhibition was inconclusive: -32.9%. With Cc1ccc(-c2noc(CSc3ccccc3)n2)cc1 the activity change (PNC), negative = inhibition was inconclusive: -40.8%. For CC(C(=O)O)C1SC(=O)NC1=O (stereo unspecified), the activity change (PNC), negative = inhibition was inactive: 15.5%. With CCC(=O)Oc1ccc(C(=O)Nc2c[nH]c(=O)[nH]c2=O)cc1 the activity change (PNC), negative = inhibition was inconclusive: -45.2%. For Cc1nnc(SCC(=O)Nc2ccc(Oc3ccccc3)cc2)n1N, the activity change (PNC), negative = inhibition was inconclusive: -46.3%. With CCOc1ccc2nc(SC(CC)C(=O)Nc3cc(C)on3)sc2c1 (stereo unspecified) the activity change (PNC), negative = inhibition was inconclusive: -59.2%. For O=S(=O)(NC1CCCCC1Oc1ccccc1)c1ccccc1 (stereo unspecified), the activity change (PNC), negative = inhibition was inactive: -25.7%. For CCCCCC1CC(CC#CCN2CCOCC2)C(=O)O1 (stereo unspecified), the activity change (PNC), negative = inhibition was inconclusive: -49.9%. With CC(C)C1Cc2c(sc3c2c(=O)n(Cc2ccccc2)c2nncn32)CO1 (stereo unspecified) the activity change (PNC), negative = inhibition was inconclusive: -55.5%. With O=S(=O)(c1ccccc1)N1CCN(c2nc(-c3cccs3)nc3ccccc23)CC1 the activity change (PNC), negative = inhibition was inconclusive: -38%. In the case of COc1ccc(N=C2NC(=O)/C(=C/c3ccc(O)c(OC)c3)S2)cc1, the activity change (PNC), negative = inhibition is reported as inactive: 38.4%. In the case of CCOC(=O)CSc1nnc(-c2cccs2)n1-c1ccccc1, the activity change (PNC), negative = inhibition is reported as inactive: 4.57%. For CCCOC(=O)CSc1nc(N)c(C#N)c(CC)c1C#N, the activity change (PNC), negative = inhibition was inactive: -28.4%. With CCN(CC)c1ccc(-c2nn3c(-c4ccccc4OC)nnc3s2)cc1 the activity change (PNC), negative = inhibition was inconclusive: -68.6%. In the case of Cc1ccc2[nH]c(=O)c(CN(CCCO)S(=O)(=O)c3c(C)ccc4nsnc34)cc2c1, the activity change (PNC), negative = inhibition is reported as active: -80.5%. With Oc1ccc(/C=N/Nc2cc(N3CCCC3)nc(N3CCCC3)n2)cc1O the activity change (PNC), negative = inhibition was inactive: -20.9%. With CCCNC(=O)NCCc1c(C)[nH]c2ccccc12 the activity change (PNC), negative = inhibition was inconclusive: -59.9%. With COc1ccccc1C(=O)NCc1ccc(-c2nc3ccccc3s2)cc1 the activity change (PNC), negative = inhibition was inconclusive: -52.1%. For COc1ccc(NC(=O)CC2SC(=Nc3ccccc3)NC2=O)c(OC)c1 (stereo unspecified), the activity change (PNC), negative = inhibition was inconclusive: -30.7%. In the case of COc1cccc(Cn2c(-c3nonc3N)nc3ccccc32)c1, the activity change (PNC), negative = inhibition is reported as active: -111%. For Cc1c(Nc2nc3ccccc3nc2NS(=O)(=O)c2ccccc2)c(=O)n(-c2ccccc2)n1C, the activity change (PNC), negative = inhibition was inconclusive: -32.6%.
